Assay results as given in patent publication US20030077800A1 (HORMOS MEDICAL, published 2003).

Molecular target: GST alone bound to glutathione-Sepharose
Assay: GST pull-down, 35S-labeled protein, SDS-PAGE and fluorography

B1: Full-length ARIP4 labeled with [35S]methionine by translation in vitro (protein)
chain: MSDESASGSDPDLDPDVELEDEEEEEEEEEVAVEEHDRDDEEGLLDDTSLEGMCGTEHAQLGEDGQRPPRCTSTTSSQSEPSEQLRHQGKILASEDPKKKRAQKPSHMRRNIRKLLREDQLEPVTKAAQQEELERRKRLEQQRKEYAAPIPTVPLEFLPEEIVLRASDGPQLPPRVLAQEVICLDSSSGSEDEKSSRDEVIELSSGEEDTLHIVDSSESVSEEDEEEEKGGTHVNDALNQHDALGRVLVNLNHPPEEENVFLAPQLARAVKPHQIGGIRFLYDNLVESLERFKTSSGFGCILAHSMGLGKTLQVISFIDVLFRHTPAKTVLAIVPVNTLQNWLAEFNMWLPAPEALPADSKPEEVQPRFFKVHILNDEHKTVASRAKVTADWVSEGGVLLMGYEMYRLLTLKKSLATSRPKKTKKRSHPVIIDLDEEDRQQEFRREFEKALCRPGPDVVICDEGHRIKNCQASTSQALKNIRSRRRVVLTGYPLQNNLIEYWCMVDFVRPDFLGTRQEFSNMFERPILNGQCIDSTPQDVRLMRYRSHVLHSLLEGFVQRRGHTVLKIHLPAKEENVILVRLSQIQRDLYTQFMDRFRDCGTSGWLGLNPLKAFCVCCKIWNHPDVLYEALQKENLANEQDLDVEELGSAGTSARCPPHGTKVKGEDSALPSSMGEATNSKFLQGVGFNPFQERGNNIVTYEWAKELLTNYQTGVLENSPKMVLLFHLIEESVKLGDKILVFSQSLSTLALIEEFLGKRDMPCLPGAEGQGTQKWVRNVSYFRLDGSTPAFERERLINQFNDPSNLTTWLFLLSTRAGCLGVNLIGANRVVVFDASWNPCHDAQAVCRVYRYGQKKPCHIYRLVADYTLEKKIYDRQISKQGMSDRVVDDLNPMLNFTRKEVENLLHFVEKEPAPQTSLDIKGIKESVLQLACLKYPHLITKEPFEHESLLLNRKDHKLTKAEKKAAKKSYEEDKRTSVPYTRPSYAQYYPASDQSLTSIPAFSQRNWQPTLKGDEKPVASVRPVQSTPIPMMPRHVPLSGGVSSASSTNTSMNFPINYLQRAGVLVQKVVTTTDIVIPGLNSSTDVQARINAGESIHIIRGTKGTYIRTSDGRIFAVRATGKPKAPEDGRMAASGSQGPSLASTSNGRHSASSPKAPDPEGLARPVSPDSPEIISELQQYADVAAARESRQSSPSISAALPGPPGQLMDNSTIPGTALGTEPCLGGHCLNSSLLVTGQPSGGRHPVLDLRGHKRKLATPSVTQESIRRRSRKGHLPAPVQPYEHGYPVSGGFAMPPVSLNHNLTTPFTSQAGENSLFMGSNPSYYQLSNLLADARLVFPVTTDPLVPAGPVSSSSTATSVTASNPSFMLNPSVPGMLPSYSLPFSQPLLSEPRMFAPFPSPGLPSNLSRGVSVYPGYMSPHAGYPAGGLLRSQVPPFDSHEVAEVGFSSNDDEDKDDDVIEVTGK
modifications: [35S]methionine label
With B1 the binding was “no binding”.

These are yes or no findings as the source states them, for the method shown.
